Measurements taken from US20020164640A1.
Results are given in words; binding and its absence hold for the method and conditions named. In cells and extracts the contact can be indirect. Some results given as binding are weak or reduced against the parent protein; the word gives no strength. Sequences can lack the tags named with a protein.

Sequences of proteins named here, by UniProt entry; tags and fusion partners are left off. Residues count along the entry.
UniProt Q99836, residues 152-296: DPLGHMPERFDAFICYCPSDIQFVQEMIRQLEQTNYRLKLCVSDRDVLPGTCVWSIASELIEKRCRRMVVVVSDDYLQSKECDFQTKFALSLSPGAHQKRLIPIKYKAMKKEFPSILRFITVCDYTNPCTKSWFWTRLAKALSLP

What was measured:
[1] = molecular target: labelled TIR domain of MyD88 (AU-1-TIR-MyD88) (UniProt Q99836); assay: co-immunoprecipitation from transfected HEK293 cells: anti-AU1 IP, anti-HA immunoblot
[2] = molecular target: T1, myc-IRAK-2 (UniProt O43187); assay: co-immunoprecipitation from transfected HEK293 cells: anti-HA IP, anti-myc immunoblot
T1 sequence (looked up): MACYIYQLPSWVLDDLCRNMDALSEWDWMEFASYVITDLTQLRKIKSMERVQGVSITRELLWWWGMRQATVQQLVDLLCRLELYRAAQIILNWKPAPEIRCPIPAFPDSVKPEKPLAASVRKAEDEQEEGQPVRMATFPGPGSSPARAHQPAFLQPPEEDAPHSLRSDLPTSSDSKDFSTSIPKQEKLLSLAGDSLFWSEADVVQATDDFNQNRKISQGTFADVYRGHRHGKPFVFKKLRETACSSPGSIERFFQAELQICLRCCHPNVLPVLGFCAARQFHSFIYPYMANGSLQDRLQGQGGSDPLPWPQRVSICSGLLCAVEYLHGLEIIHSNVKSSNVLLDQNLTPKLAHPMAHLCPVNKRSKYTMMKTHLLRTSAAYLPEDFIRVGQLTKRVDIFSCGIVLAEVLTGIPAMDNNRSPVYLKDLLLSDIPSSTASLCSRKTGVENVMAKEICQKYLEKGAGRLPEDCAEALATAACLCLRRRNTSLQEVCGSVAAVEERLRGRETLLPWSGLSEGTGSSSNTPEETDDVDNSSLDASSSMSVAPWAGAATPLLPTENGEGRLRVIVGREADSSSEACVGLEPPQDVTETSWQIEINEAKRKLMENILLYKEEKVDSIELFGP

B1: labelled TIR domain of MAL-1 (HA-TIR-MAL-1) (protein, not shown: small tags and cut ends)
chain: YDVCVCHSEEDLVAAQDLVSYLEGSTASLRCFLQLRDATPGGAIVSELCQALSSSHCRVLLITPGFLQDPWCKYQMLQALTEAPGAEGCTIPLLSGLSRAAYPPELRFMYYVDGRGPDGGFRQVKEAVMRCKLLQEGEGERDSATVSDLL
For B1, the binding [1] was “binds” and the binding [2] was “binds”.
